Reference: patent publication US9610263B2, “Method of modulating membrane potential of a cell” (VERSITECH LIMITED, priority 2007, dated 2017)
Some results were stated once for a whole list of compounds, not compound by compound.

Experiment: pH-stat fluorometric transport assay in HPTS-loaded liposomes (chloride release)
Type: biochemical
Conditions: LUVs of 100 nm; NaCl extra- and intravesicular buffers

SMILES: CC(C)CNC(=O)[C@@H](CC(C)C)ONC(=O)c1ccccc1 [Example 6]
- chloride release / exchange between extra- and intravesicular electrolytes: can also mediate chloride transport across lipid bilayers of chloride-containing liposomes with different efficiencies
